Source: publication PMC10221034 (2023)
Where a chain is given by its changes, count along the chain named. No constants are given. Whether binding was seen depends on the method and setting. Binding calls can cover weak binding; strength is not graded here.

By UniProt entry, the sequences of proteins in these tests, tags left out. Where a name states a change or a piece, a line headed by the entry shows the natural chain unless it says otherwise.
UniProt Q04JH4, whole entry, looked up, stated change not applied: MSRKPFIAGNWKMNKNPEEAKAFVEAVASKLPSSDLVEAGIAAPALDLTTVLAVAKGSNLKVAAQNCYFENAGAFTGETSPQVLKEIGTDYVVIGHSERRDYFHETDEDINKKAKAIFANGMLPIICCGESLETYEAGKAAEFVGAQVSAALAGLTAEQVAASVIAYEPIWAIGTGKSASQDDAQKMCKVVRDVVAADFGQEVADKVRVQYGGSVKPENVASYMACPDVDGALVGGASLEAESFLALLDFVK

Assays:
Experiment in all cases: far-Western, overlay or dot blot; rTpiA (200 ng) separated by SDS-PAGE and transferred onto PVDF; membrane blocked with 5% BSA in TBST, incubated 90 min with 30 µg/mL plasminogen at 25 °C; bound plasminogen probed with rabbit polyclonal anti-plasminogen and HRP secondary antibody; both purified
[1] = molecular target: T1, rTpiA K21A (Streptococcus pneumoniae D39) (UniProt Q04JH4)
T1 sequence: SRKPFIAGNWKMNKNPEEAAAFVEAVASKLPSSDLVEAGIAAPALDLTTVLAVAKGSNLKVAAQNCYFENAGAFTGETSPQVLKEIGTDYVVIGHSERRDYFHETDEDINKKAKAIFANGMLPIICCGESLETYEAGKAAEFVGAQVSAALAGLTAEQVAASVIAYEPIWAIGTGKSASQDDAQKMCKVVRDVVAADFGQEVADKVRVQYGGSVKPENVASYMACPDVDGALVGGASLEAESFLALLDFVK

[2] = molecular target: T2, rTpiA K112A (Streptococcus pneumoniae D39) (UniProt Q04JH4)
T2 sequence: T1 sequence with A20K, K111A

[3] = molecular target: T3, rTpiA K85A (Streptococcus pneumoniae D39) (UniProt Q04JH4)
T3 sequence: T1 sequence with A20K, K84A

[4] = molecular target: T4, rTpiA K177A (Streptococcus pneumoniae D39) (UniProt Q04JH4)
T4 sequence: T1 sequence with A20K, K176A

[5] = molecular target: T5, rTpiA K15A (Streptococcus pneumoniae D39) (UniProt Q04JH4)
T5 sequence: T1 sequence with K14A, A20K

[6] = molecular target: T6, rTpiA K4A (Streptococcus pneumoniae D39) (UniProt Q04JH4)
T6 sequence: T1 sequence with K3A, A20K

[7] = molecular target: T7, rTpiA K186A (Streptococcus pneumoniae D39) (UniProt Q04JH4)
T7 sequence: T1 sequence with A20K, K185A

Measured: binding

human plasma plasminogen
binds: [1] | [2] | [3] | [4] | [5] | [6] | [7]
